# The other results are listed elsewhere or left out. The main result of the screen is listed elsewhere. These columns were measured beside it and carry no call. The list favours compounds with an active or inconclusive main result. Potencies come from curve fits of mixed quality, noted in brackets.
# Assay: qHTS Assay for Lipid Storage Modulators in Drosophila S3 Cells;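 on cell number change: cells counted by Cell Tracker Red CMTPX staining in the red channel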
# Settings: BODIPY lipid droplet fluorescence, 18-24 h; for cell number change: measured here: cell count max response, cells fed with added oleic acid
# Method in brief: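 Drosophila S3 cells loaded with oleic acid (400 uM, as added) and compounds at several concentrations; lipid droplets imaged by 488-nm laser-scanning cytometry, 500–530 nm intensity and object ratio to cell channel. Percent activity normalized to 20 uM Triacsin C.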
# [1] = measured here: cell number channel AC50, cells fed with added oleic acid
# [2] = measured here: lipid fluorescence (Fed channel) AC50, cells fed with added oleic acid
Structure (SMILES),cell number change [%],AC50 [1],AC50 [2]
O=S(=O)(NCc1ccc(F)cc1)c1ccccc1Br,-37.3,"23.1 µM [falling, partial curve, poor fit]","1.46 µM [falling, full curve, poor fit]"
CCN(CC)S(=O)(=O)c1ccc(N2C(=O)Nc3ccccc3N2O)cc1,17.3,,"6.51 µM [rising, partial curve, poor fit]"
N#CC1=C(N)Oc2n[nH]c(-c3cccnc3)c2C1c1ccc([N+](=O)[O-])o1 (stereo not drawn),-56.9,"1.3 µM [falling, partial curve, poor fit]","6.51 µM [rising, partial curve]"
Cc1ccc(/C(N)=N/OC(=O)CCC2CCCC2)cc1,-30.3,"0.092 µM [falling, full curve]","0.164 µM [falling, full curve]"
Clc1ccc(SCc2cn3cccnc3n2)cc1,12.5,,
CCN(CC)C(=O)CSc1nsc(SCC(=O)N(CC)CC)c1C#N,-19.5,,"29.1 µM [falling, single point]"
CCC(C)Sc1nc(O)cc(=O)[nH]1 (stereo not drawn),0.455,,"2.31 µM [falling, partial curve]"
O=C(NNC(=O)C12CC3CC(CC(C3)C1)C2)c1cccc([N+](=O)[O-])c1,-31.6,,
COc1nc(C#N)c(N2CCOCC2)o1,-183,"29.1 µM [falling, single point]",
O=C(CCNC(=O)N1CCn2c1nc1ccccc12)NCc1ccccc1Cl,16.9,,"13 µM [falling, partial curve]"
O=C(NCc1ccco1)C(c1ccncc1)N(CCC1=CCCCC1)C(=O)Cn1nnc2ccccc21 (stereo not drawn),-2.49,"2.31 µM [rising, partial curve]","0.651 µM [falling, single point]"
COc1ccc(-n2nc(C(=O)NCC(=O)NCCC3=CCCCC3)c3ccccc3c2=O)c(OC)c1,97.7,"25.9 µM [rising, partial curve]",
O=C(O)c1c[nH]c2ccc(F)cc2c1=O,-51.8,"23.1 µM [falling, partial curve]","23.1 µM [falling, partial curve, poor fit]"
COc1cc(S(=O)(=O)N2CCN(Cc3cccs3)CC2)ccc1NC(C)=O,5.62,,"16.4 µM [rising, single point]"
COc1ccccc1NC(=O)c1ccc(Cl)c(S(=O)(=O)NCc2ccco2)c1,1.42,,"0.517 µM [rising, single point]"
O=C(N/N=C1\CC2CC=CC12)c1ccccc1Cl (stereo not drawn),,"0.00517 µM [rising, full curve, poor fit]","0.00517 µM [rising, full curve, poor fit]"
CC(=O)c1ccc(NC(=O)c2ccc3c(=O)n4c(nc3c2)CCCCC4)cc1,-29.5,"3.26 µM [falling, single point]","3.26 µM [falling, partial curve, poor fit]"
Cc1ccc2c(c1)C(O)(CC(=O)c1ccc(C)s1)C(=O)N2 (stereo not drawn),-17.8,,
Cc1onc(C(=O)Nc2ccc(OC(F)(F)F)cc2)c1[N+](=O)[O-],2.28,,"7.31 µM [rising, partial curve, poor fit]"

Structure (SMILES),cell number change [%],AC50 [1],AC50 [2]
COc1ccc2c(C)c(CC(=O)N3CCN(C(=O)C4COc5ccccc5O4)CC3)c(=O)oc2c1C (stereo not drawn),20.2,,
CC(C)C(=O)N(Nc1nc2ccccc2s1)C(=O)C(C)C,-9.61,,"11.6 µM [falling, partial curve]"
CC(C)Sc1nnc(SCC(=O)NCCCN2CCCC2=O)s1,9.44,,"6.51 µM [rising, partial curve, poor fit]"
O=C(O)C1CC(=O)N(c2ccc(F)c(F)c2)C1 (stereo not drawn),-36.6,"1.84 µM [falling, full curve]","1.46 µM [falling, full curve]"
Cc1cccc(N2CCN(C(=O)Cn3nc(C)n4cccc4c3=O)CC2C)c1 (stereo not drawn),7.49,,"16.4 µM [rising, partial curve]"
COc1ccc(N2CC(O)=C(c3nc4ccccc4s3)C2=N)c(OC)c1,1.89,,"0.231 µM [rising, full curve, poor fit]"
COc1cc(CC(=O)OCC(=O)NCC(C)C)cc(OC)c1OC,,,"0.00517 µM [rising, full curve, poor fit]"
Cc1c(/C=N\NC(=O)C2COc3ccccc3O2)c2ccccc2n1C (stereo not drawn),-10.3,,"0.651 µM [falling, single point]"
CCC(=O)Nc1ccc(SC#N)cc1C,57.6,"7.31 µM [rising, partial curve]",
CC(C)CC(NC(N)=O)C(=O)Nc1cccc([N+](=O)[O-])c1 (stereo not drawn),1.46,"0.92 µM [rising, full curve, poor fit]",
Cc1ccc(C)c(N2CCN(C(=O)C34CC5CC(C3)CC(n3nnc(C)n3)(C5)C4)CC2)c1,-66.8,"8.2 µM [falling, partial curve]","7.31 µM [falling, partial curve]"
Cc1cccc(-c2cnn(-c3cccc([N+](=O)[O-])c3)c2N)c1,30.3,,
COc1ccc(/C=N/NC(=O)c2ccc(N3CCCC3=O)cc2)cc1,,"0.00517 µM [rising, full curve, poor fit]",
COC(=O)c1sc2nc(CN3CCOCC3)nc(N3CCOCC3)c2c1C,-5.78,,"7.31 µM [rising, partial curve, poor fit]"
COc1ccc(CCc2nc(-c3ccc(-n4cccc4)cc3)no2)cc1,,,"1.64 µM [rising, partial curve, poor fit]"
N#Cc1cc2ccccc2nc1SCc1ccccn1,89.1,"29.1 µM [rising, single point]","20.6 µM [rising, partial curve]"
C=CCNC(=S)Nc1ccc2nsnc2c1,-37.7,"3.26 µM [falling, partial curve]","1.84 µM [falling, partial curve, poor fit]"
Cc1noc(NS(=O)(=O)c2ccc(NC(=O)CSc3nnc4c(n3)[nH]c3ccccc34)cc2)c1C,,"0.146 µM [rising, full curve, poor fit]","20.6 µM [rising, single point]"
COc1ccc(O)c(C(=O)CC(=O)c2ccccc2C)c1,-46.7,"11.6 µM [falling, partial curve]","23.1 µM [falling, partial curve, poor fit]"

Structure (SMILES),cell number change [%],AC50 [1],AC50 [2]
CCOc1ccc2nc(NC(NC(=O)CC)(C(=O)OC)C(F)(F)F)sc2c1 (stereo not drawn),-20.4,,"2.06 µM [falling, partial curve, poor fit]"
Cc1ccc2c(CN3CCN(S(=O)(=O)c4ccccc4C(F)(F)F)CC3)cc(=O)oc2c1C,-43.7,"29.1 µM [falling, single point]","23.1 µM [falling, single point]"
O=S(=O)(NCCCCCCNS(=O)(=O)c1c(F)cccc1F)c1ccc2c(c1)OCCO2,-1.68,,"0.0116 µM [rising, full curve]"
COCCNC(=O)C1CCC(=O)N(c2ccc(OC)cc2)C1c1ccc(OC)c(OC)c1 (stereo not drawn),17.6,,"0.164 µM [falling, full curve, poor fit]"
Nc1nc(Cl)cc(N2CCOCC2)n1,11.2,,
CCOC(=O)c1ccc(N2C(=O)C=CC2=O)cc1,-89.6,"25.9 µM [falling, single point]","29.1 µM [falling, single point]"
CCc1nnc(NC(=O)NC(C)(C)C)s1,66.1,"29.1 µM [rising, partial curve, poor fit]","14.6 µM [rising, partial curve, poor fit]"
O=C(NC1=NCCS1)c1ccc(Cl)c(S(=O)(=O)N2CCOCC2)c1,24.9,"0.82 µM [rising, full curve, poor fit]",
O=C(Nc1ccc(Cl)c(Cl)c1)N1CCSC1c1ccco1 (stereo not drawn),-37.7,"20.6 µM [falling, partial curve]","0.0517 µM [rising, full curve, poor fit]"
CC(=O)c1cccc(NC(=S)NC(=O)CC(C)(C)C)c1,-48.7,"1.03 µM [falling, full curve, poor fit]",
O=C(Cn1cc([N+](=O)[O-])cn1)NCc1cc2ccccc2[nH]1,8.82,,"0.651 µM [rising, partial curve, poor fit]"
COc1ccc(N2CC(C(=O)Nc3nnc(SCC(=O)c4ccccc4)s3)CC2=O)cc1 (stereo not drawn),23.3,,"10.3 µM [rising, partial curve]"
O=C(O)CSc1nnc(-c2ccccc2O)n1Cc1ccccc1,,,"18.4 µM [falling, partial curve]"
N#Cc1ccc(NC(=O)Cn2cnc(S(=O)(=O)N3CCCCC3)c2)cc1,-14.9,,"0.651 µM [falling, full curve]"
O=C(O)/C=C/C(=O)NCCC1=CCCCC1,16.7,"4.11 µM [falling, single point]","4.11 µM [falling, single point]"
Cc1csc(NC(=O)CCCC(=O)O)c1-c1nc2ccccc2s1,-4.26,,
Cc1nn(Cc2ccc(Cl)c(Cl)c2)c(C)c1NC(=O)c1noc2c1CCCCC2,-5.48,"0.82 µM [rising, full curve]",
S=C1NC2=C(CCC/C2=C\c2ccccc2)C(c2ccccc2)N1 (stereo not drawn),-31.9,"0.461 µM [rising, single point]","29.1 µM [rising, partial curve, poor fit]"

# Quoted at random: two records from the list.
Structure (SMILES),cell number change [%],AC50 [1],AC50 [2]
Cc1nn(Cc2ccc(Cl)c(Cl)c2)c(C)c1NC(=O)c1noc2c1CCCCC2,-5.48,"0.82 µM [rising, full curve]",
N#Cc1ccc(NC(=O)Cn2cnc(S(=O)(=O)N3CCCCC3)c2)cc1,-14.9,,"0.651 µM [falling, full curve]"
